In PubChem BioAssay AID248 (DTP/NCI, 2004):
The list does not hold the whole screen: it gathers tests that were run many times, whatever their T/C, doses with no T/C, and many T/C values between a quarter and a half above the control. Further doses and runs are listed elsewhere. T/C is the treated group as % of the vehicle group. Some entries give survivors of the animals treated and no T/C: the source holds a T/C of zero for them, seemingly a mark for toxic or unscored doses. Some doses without a T/C left all or most animals alive at the check, yet need not have been tolerated: survival well below the control is almost never listed, so the zero probably covers shortened survival too. Counts of survivors are from the toxicity check (mostly the fifth day) where no day follows; animals may have died later. Schedules are NCI's codes, read here as Q, the interval in days (D) or hours (H), X, the number of doses. Where survival is the endpoint, the PubChem record calls one and a half times the control and up active, and a quarter to a half above the control has no call in these data; cut-offs in other NCI protocols can differ.

Tested on: L1210 leukemia ip in BDF1 mice, survival T/C
Assay: NCI In Vivo Anticancer Drug Screen. Data for tumor model L1210 Leukemia (intraperitoneal) in B6D2F1 (BDF1) mice
Details: higher T/C = longer survival

CCC(C)C(CCN(C)CC)(CNC(=O)CN(CC)CC)c1cccc2ccccc12 (stereo not given)
survivor count (T/C endpoint: mean survival time, dose: 200.0 mg/kg/injection, schedule: Q01DX009 (ip), vehicle: saline): 0 of 6 | survivor count (T/C endpoint: mean survival time, dose: 200.0 mg/kg/injection, schedule: Q04DX002 (ip), vehicle: saline): 3 of 3 | survivor count (T/C endpoint: mean survival time, dose: 400.0 mg/kg/injection, schedule: Q01DX009 (ip), vehicle: saline): 0 of 6

OCC1OC(n2cc(Cl)c3cncnc32)C(O)C1O (stereo not given)
survivor count (T/C endpoint: mean survival time, dose: 100.0 mg/kg/injection, schedule: Q01DX005 (ip), vehicle: saline): 3 of 6

CN(C)c1ccc(/C=N\NC(=O)N/N=C/c2ccc(N(C)C)cc2)cc1
survivor count (T/C endpoint: mean survival time, dose: 200.0 mg/kg/injection, schedule: Q01DX001 (ip), vehicle: Klucel (hydroxypropylcellulose) (HPC)): 6 of 6 | survivor count (T/C endpoint: mean survival time, dose: 400.0 mg/kg/injection, schedule: Q01DX001 (ip), vehicle: Klucel (hydroxypropylcellulose) (HPC)): 6 of 6

Nc1ccc(CCCCc2ccccc2)c(Cl)c1
survivor count (T/C endpoint: mean survival time, dose: 300.0 mg/kg/injection, schedule: Q01DX001 (ip), vehicle: saline): 2 of 6

CCOC(=O)c1c[nH]c2oc(/C=N/N3CC(CN4CCOCC4)OC3=O)cc2c1=O (stereo not given)
T/C (T/C endpoint: median survival time, dose: 100.0 mg/kg/injection, schedule: Q01DX009 (ip), vehicle: acid diluted with saline): 130 % of control | T/C (T/C endpoint: median survival time, dose: 400.0 mg/kg/injection, schedule: Q01DX009 (ip), vehicle: acid diluted with saline): 130 % of control

OCCNC(=S)Nc1cccc(C(F)(F)F)c1
survivor count (T/C endpoint: mean survival time, dose: 400.0 mg/kg/injection, schedule: Q01DX009 (ip), vehicle: saline with Tween-80): 2 of 3

CCCCCCCCCCCCNCc1ccc(O)cc1
survivor count (T/C endpoint: mean survival time, dose: 200.0 mg/kg/injection, schedule: Q01DX001 (ip), vehicle: other): 3 of 6 | survivor count (T/C endpoint: mean survival time, dose: 400.0 mg/kg/injection, schedule: Q01DX001 (ip), vehicle: other): 1 of 6

CC1(c2ccc3ccccc3c2)OCC2(CCC2)CO1
survivor count (T/C endpoint: mean survival time, dose: 200.0 mg/kg/injection, schedule: Q04DX002 (ip), vehicle: Klucel (hydroxypropylcellulose) (HPC)): 3 of 3

O=C(O)c1cc(=O)c(O)c2c(O)c(O)c(O)cc2c1
survivor count (T/C endpoint: mean survival time, dose: 400.0 mg/kg/injection, schedule: Q01DX001 (ip), vehicle: saline): 2 of 4

CSC1c2ccccc2-c2ccccc21
T/C (T/C endpoint: mean survival time, dose: 100.0 mg/kg/injection, schedule: Q01DX001 (ip), vehicle: carboxymethylcellulose (CMC)): 128 % of control
